Data as given in PubChem BioAssay AID2685 (National Center for Advancing Translational Sciences (NCATS), 2010).
About 2,100 (0.66%) of roughly 320,000 compounds were called active. Inconclusive means that the source gave no clear call. Such entries were picked first, then a sample of the others. Calls come from the whole dose curve; as a rule, active = well fitted inhibition curve with a large enough effect in the signal ratio, with a control signal flat (not every such curve was filed as active); inconclusive = small, poorly fitted or top-dose-only effect, or effect the other way, or a change in a side signal; inactive = flat fitted curve, though single readings scatter; the % refers to the signal ratio. A potency beside an inconclusive call is a rough fit, not a confirmed value.

Assay: qHTS Assay for Lipid Storage Modulators in Drosophila S3 Cells
Conditions: BODIPY lipid droplet fluorescence, 18-24 h, cells fed with added oleic acid; lipid storage change, negative = inhibition: at 46.1 µM (top of the series) unless noted
Method in brief: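 Drosophila S3 cells got compounds at several concentrations plus oleic acid (400 uM solution). Laser-scanning cytometry with 488 nm excitation read lipid droplets at 500-530 nm and cells at 575-640 nm. Percent activity was relative to 20 uM Triacsin C.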
% is set by controls: 0 for no effect and ±100 for the full control effect; potency is the fitted concentration of half-maximal effect.

SMILES | Potency | lipid storage change, negative = inhibition
O=C1/C(=C/c2cccnc2)SC(=S)N1CC1CCCO1 (stereo unspecified) | inconclusive: 2.06 µM [activator, partial curve] | –
COC(=O)c1ccc2c(c1)NC(=O)C(N1CCCC1)S2 (stereo unspecified) | – | inconclusive: 16.6%
CCC1CCCCN1C(=O)C1CC(c2cc(Cl)c(OC)cc2OC)=NO1 (stereo unspecified) | inconclusive: 0.411 µM [activator, full curve] | –
COc1ccccc1-c1nc2n(n1)C(c1ccccc1Cl)C(C(N)=O)=C(C)N2 (stereo unspecified) | – | inconclusive: -9.04% [at 9.22 µM]
COC(=O)c1c(NC(=O)CSc2ncn[nH]2)sc(C)c1C | inconclusive: 1.84 µM [activator, partial curve] | –
Cc1ccc(C)c(NC(=O)CN(C)C(=O)c2ccncc2)c1 | inconclusive: 29.1 µM [falling, single point] | –
CS(=O)(=O)c1cccc(C(=O)Oc2ccccc2)c1 | – | inconclusive: -50.2%
CN(C)c1nc(N)nc(CSc2nnnn2-c2ccc(F)cc2)n1 | inconclusive: 0.58 µM [activator, single point] | –
COc1ccc(N2CCN(C(=S)Nc3ccc(C)cc3C)CC2)cc1 | inconclusive: 0.0058 µM [falling, full curve, poor fit] | –
O=C(O)CC1S/C(=N\N=C2CCCCCC2)N(c2ccccc2)C1=O (stereo unspecified) | – | inconclusive: 9.49%
Cc1ccc(C(OCC(O)CNC(CO)C(O)c2ccc([N+](=O)[O-])cc2)c2ccccc2)cc1 (stereo unspecified) | – | inconclusive: 43.2%
CCOC(=O)C(O)(NC(=O)c1cccnc1)C(F)(F)F (stereo unspecified) | inconclusive: 23.1 µM [falling, single point] | –
Cc1c(C(=O)N2CCCCC2)c(S(=O)(=O)N(C)Cc2ccco2)c(C)n1C | – | inconclusive: -38%
O=C(COC(=O)c1ccc(Cl)nc1)Nc1ccc(S(=O)(=O)N2CCCC2)cc1 | – | inconclusive: -6.63%
Cc1nnsc1C(=O)N/N=C/c1ccccc1Cl | – | inconclusive: 7.89%
COc1ccc(OC)c(-n2c(-c3ccccc3)n[nH]c2=S)c1 | – | inconclusive: 8.4%
Cc1cc(OCC(=O)OCC(=O)N2CCc3ccccc32)ccc1Cl | – | inconclusive: -9.2%
COc1ccccc1C(CC(=O)Nc1ccc(C)c(C)c1)c1ccc(OC(C)C)cc1 (stereo unspecified) | – | inactive
O=S(=O)(c1ccc(Cl)cc1)c1nc(-c2ccccc2F)oc1NCCN1CCOCC1 | inconclusive: 18.4 µM [activator, single point] | –
COc1ccc(CCNC(=O)Cn2nnc(-c3cccc(OC)c3OC)n2)cc1OC | – | inconclusive: -39.4%
COc1ccc(F)cc1S(=O)(=O)NCC(c1ccco1)N1CCc2ccccc2C1 (stereo unspecified) | – | inconclusive: 27.2% [at 0.0737 µM]

2 records picked at random from those above:
SMILES | Potency | lipid storage change, negative = inhibition
CS(=O)(=O)c1cccc(C(=O)Oc2ccccc2)c1 | – | inconclusive: -50.2%
Cc1ccc(C)c(NC(=O)CN(C)C(=O)c2ccncc2)c1 | inconclusive: 29.1 µM [falling, single point] | –
